In the test the target is monkey PD1 on CHO cells (CHO-cynoPD1) (monkey). The test is described as follows: flow cytometry on CHO-cynoPD1 cells. For orientation: In flow cytometry, cells or beads pass a laser one at a time.

No constants are given. Whether binding was seen depends on the method and setting. A result given as binding can be weak or reduced; the word gives no strength.

B1: PD-1-76-C2 (antibody, V domains shown)
VH: QIQLVQSGPELKKPGETVKISCKASGYTFTNYGMNWVKQAPGKGLKWMGWINTHTGEPTYADDFKGRFAFSLETSASTAYLQIKNLKNEDVATYFCTKEGEGIGFAYWGQGTLVTVSA
VL: DVLMTQTPLSLPVSLGDQASISCRSSQSIVYSNGKTYLEWYLQKPGQSPKLLIYKVSNRFSGVPDRFSGSGSGTDFTLKISRVEAEDLGVYYCFQGSHVPNTFGGGTKLEIKR
As to B1, the binding entry is recorded as “binds”.

B2: PD-1-112-C2 (antibody, V domains shown)
VH: QVQLQQPGAELVKPGASVKLSCKASGYTFTTYYMYWVKQRPGQGLEWIGGINPSNGGTNFNEKFKSKATLTVDKSSSTAYMQLSSLTSEDSAVYYCTRRDSNYDGGFDYWGQGTTLTVSS
VL: DIVLTQSPASLAVSLGQRATISCRASKSVSTSGYSYMHWYQQKPGQPPKLLIYLAYHLESGVPARFSGSGSGTDFTLNIHPVEEEDAATYYCQHSWELPITFGSGTKLEIKR
As to B2, the binding result is given as “binds”.

(Values after patent US20230044381A1.)
